# The list shows a part of the results.
# What was measured:
# Experiment in all cases: glycan array binding signal (z-score within array); higher = stronger binding
# Conditions in all cases: glycan notation: IUPAC condensed, linker removed
# [1] = target: Gal(b1-4)GlcNAc(b1-3)Gal(b1-4)GlcNAc(b1-3)[Gal(b1-4)GlcNAc(b1-3)Gal(b1-4)GlcNAc(b1-6)]GalNAc
# Method in brief: (§1)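 The binding signal is a Z-score computed within each array and averaged over linkers. Arrays of the same protein sequence at different concentrations or buffers were also averaged together. Data originate from 3228 arrays in the Consortium for Functional Glycomics database, kept only where the protein sequence was available.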
# [2] = target: Gal(b1-4)GlcNAc(b1-3)Gal(b1-4)GlcNAc(b1-6)[Gal(b1-3)]GalNAc
# Method in brief: as §1
# [3] = target: Gal(b1-4)GlcNAc(b1-3)Gal(b1-4)[Fuc(a1-3)]GlcNAc(b1-3)Gal(b1-4)[Fuc(a1-3)]GlcNAc
# Method in brief: as §1
# [4] = target: Gal(b1-4)GlcNAc(b1-3)GalNAc
# Method in brief: as §1
# [5] = target: Gal(b1-4)GlcNAc(b1-3)[Fuc(a1-3)GlcNAc(b1-6)]Gal(b1-4)Glc
# Method in brief: as §1
# [6] = target: Gal(b1-4)GlcNAc(b1-3)[Gal(b1-4)GlcNAc(b1-6)]Gal(b1-4)GlcNAc
# Method in brief: as §1
# [7] = target: Gal(b1-4)GlcNAc(b1-3)[GlcNAc(b1-6)]Gal(b1-4)GlcNAc
# Method in brief: as §1
# [8] = target: Gal(b1-4)GlcNAc(b1-6)Gal(b1-4)GlcNAc
# Method in brief: as §1
# [9] = target: Gal(b1-4)GlcNAc(b1-6)GalNAc
# Method in brief: as §1
# [10] = target: Gal(b1-4)GlcNAc(b1-6)[Gal(b1-3)]GalNAc
# Method in brief: as §1
# [11] = target: Gal(b1-4)GlcNAc(b1-6)[Gal(b1-4)GlcNAc(b1-3)]GalNAc
# Method in brief: as §1
# Gal(b1-4)GlcNAc6P = target: Gal(b1-4)GlcNAc6P
# Method in brief: as §1
# Gal(b1-6)Gal = target: Gal(b1-6)Gal
# Method in brief: as §1
# Gal3S(b1-3)GalNAc = target: Gal3S(b1-3)GalNAc
# Method in brief: as §1
# Gal3S(b1-3)GlcNAc = target: Gal3S(b1-3)GlcNAc
# Method in brief: as §1
# [12] = target: Gal3S(b1-3)[Fuc(a1-4)]GlcNAc
# Method in brief: as §1
# Gal3S(b1-4)Glc = target: Gal3S(b1-4)Glc
# Method in brief: as §1
# Gal3S(b1-4)Glc6S = target: Gal3S(b1-4)Glc6S
# Method in brief: as §1
# Gal3S(b1-4)GlcNAc = target: Gal3S(b1-4)GlcNAc
# Method in brief: as §1
# [13] = target: Gal3S(b1-4)[Fuc(a1-3)]Glc6S
# Method in brief: as §1
# [14] = target: Gal3S(b1-4)[Fuc(a1-3)]GlcNAc
# Method in brief: as §1
# [15] = target: Gal3S(b1-4)[Fuc(a1-3)]GlcNAc6S
# Method in brief: as §1
# Gal3S4S(b1-4)GlcNAc = target: Gal3S4S(b1-4)GlcNAc
# Method in brief: as §1
# Gal3S6S(b1-4)GlcNAc = target: Gal3S6S(b1-4)GlcNAc
# Method in brief: as §1
# Gal3S6S(b1-4)GlcNAc6S = target: Gal3S6S(b1-4)GlcNAc6S
# Method in brief: as §1
# Gal4S(b1-4)GlcNAc = target: Gal4S(b1-4)GlcNAc
# Method in brief: as §1
# Gal4S6S(b1-4)GlcNAc = target: Gal4S6S(b1-4)GlcNAc
# Method in brief: as §1
# Gal6P(b1-4)GlcNAc = target: Gal6P(b1-4)GlcNAc
# Method in brief: as §1
# Gal6S(b1-3)GlcNAc = target: Gal6S(b1-3)GlcNAc
# Method in brief: as §1
# Gal6S(b1-3)GlcNAc6S = target: Gal6S(b1-3)GlcNAc6S
# Method in brief: as §1
# Gal6S(b1-4)Glc = target: Gal6S(b1-4)Glc
# Method in brief: as §1
# Gal6S(b1-4)Glc6S = target: Gal6S(b1-4)Glc6S
# Method in brief: as §1
# Gal6S(b1-4)GlcNAc = target: Gal6S(b1-4)GlcNAc
# Method in brief: as §1
# Gal6S(b1-4)GlcNAc6S = target: Gal6S(b1-4)GlcNAc6S
# Method in brief: as §1
# GalNAc(a1-3)Gal = target: GalNAc(a1-3)Gal
# Method in brief: as §1
# GalNAc(a1-3)GalNAc = target: GalNAc(a1-3)GalNAc
# Method in brief: as §1
# [16] = target: GalNAc(a1-3)GalNAc(b1-3)Gal(a1-4)Gal(b1-4)Glc
# Method in brief: as §1
# [17] = target: GalNAc(a1-3)GalNAc(b1-3)Gal(a1-4)Gal(b1-4)GlcNAc
# Method in brief: as §1
# GalNAc(b1-3)Gal = target: GalNAc(b1-3)Gal
# Method in brief: as §1
# [18] = target: GalNAc(b1-3)Gal(a1-4)Gal(b1-4)GlcNAc
# Method in brief: as §1
# [19] = target: GalNAc(b1-3)Gal(a1-4)Gal(b1-4)GlcNAc(b1-3)Gal(b1-4)Glc
# Method in brief: as §1
# [20] = target: GalNAc(b1-3)Gal(a1-6)Gal(b1-4)Glc
# Method in brief: as §1
# GalNAc(b1-3)GalNAc = target: GalNAc(b1-3)GalNAc
# Method in brief: as §1
# GalNAc(b1-3)GlcNAc = target: GalNAc(b1-3)GlcNAc
# Method in brief: as §1
# GalNAc(b1-4)Gal(b1-4)Glc = target: GalNAc(b1-4)Gal(b1-4)Glc
# Method in brief: as §1
binder,measurement,setting,value
"XTP3-B-MRH1 (Homo sapiens), Q96DZ1 (protein) LLEPLFKQSSCSYRIESYWTYEVCHGKHIRQYHEEKETGQKINIHEYYLGNMLAKNLLFEKEREAEEKEKSNEIPTKNIEGQMTPYYPVGMGNGTPCSLKQNRPRSSTVMYICHPESKHEILSVAEVTTCEYEVVILTPLLCSHPKYRFRA",glycan array binding signal (z-score),[1],1.07
same,glycan array binding signal (z-score),[2],-1.11
same,glycan array binding signal (z-score),[3],1.64
same,glycan array binding signal (z-score),[4],-0.205
same,glycan array binding signal (z-score),[5],-0.36
same,glycan array binding signal (z-score),[6],-1.12
same,glycan array binding signal (z-score),[7],-0.819
same,glycan array binding signal (z-score),[8],-1.39
same,glycan array binding signal (z-score),[9],0.007
same,glycan array binding signal (z-score),[10],-0.431
same,glycan array binding signal (z-score),[11],-0.532
same,glycan array binding signal (z-score),Gal(b1-4)GlcNAc6P,0.316
same,glycan array binding signal (z-score),Gal(b1-6)Gal,-1.21
same,glycan array binding signal (z-score),Gal3S(b1-3)GalNAc,-0.113
same,glycan array binding signal (z-score),Gal3S(b1-3)GlcNAc,0.608
same,glycan array binding signal (z-score),[12],0.441
same,glycan array binding signal (z-score),Gal3S(b1-4)Glc,-0.327
same,glycan array binding signal (z-score),Gal3S(b1-4)Glc6S,0.744
same,glycan array binding signal (z-score),Gal3S(b1-4)GlcNAc,1.03
same,glycan array binding signal (z-score),[13],1.18
same,glycan array binding signal (z-score),[14],-0.28
same,glycan array binding signal (z-score),[15],-0.589
same,glycan array binding signal (z-score),Gal3S4S(b1-4)GlcNAc,-0.679
same,glycan array binding signal (z-score),Gal3S6S(b1-4)GlcNAc,-0.594
same,glycan array binding signal (z-score),Gal3S6S(b1-4)GlcNAc6S,-0.392
same,glycan array binding signal (z-score),Gal4S(b1-4)GlcNAc,0.853
same,glycan array binding signal (z-score),Gal4S6S(b1-4)GlcNAc,0.263
same,glycan array binding signal (z-score),Gal6P(b1-4)GlcNAc,0.11
same,glycan array binding signal (z-score),Gal6S(b1-3)GlcNAc,0.319
same,glycan array binding signal (z-score),Gal6S(b1-3)GlcNAc6S,1.43
same,glycan array binding signal (z-score),Gal6S(b1-4)Glc,0.558
same,glycan array binding signal (z-score),Gal6S(b1-4)Glc6S,-1.5
same,glycan array binding signal (z-score),Gal6S(b1-4)GlcNAc,1.69
same,glycan array binding signal (z-score),Gal6S(b1-4)GlcNAc6S,0.232
same,glycan array binding signal (z-score),GalNAc(a1-3)Gal,-0.724
same,glycan array binding signal (z-score),GalNAc(a1-3)GalNAc,3.12
same,glycan array binding signal (z-score),[16],-0.463
same,glycan array binding signal (z-score),[17],-0.927
same,glycan array binding signal (z-score),GalNAc(b1-3)Gal,-0.437
same,glycan array binding signal (z-score),[18],1.06
same,glycan array binding signal (z-score),[19],-1.02
same,glycan array binding signal (z-score),[20],0.096
same,glycan array binding signal (z-score),GalNAc(b1-3)GalNAc,1.22
same,glycan array binding signal (z-score),GalNAc(b1-3)GlcNAc,-0.925
same,glycan array binding signal (z-score),GalNAc(b1-4)Gal(b1-4)Glc,-0.25

# Two entries from above, reformatted:
binder	measurement	setting	value
XTP3-B-MRH1 (Homo sapiens), Q96DZ1 (protein) LLEPLFKQSSCSYRIESYWTYEVCHGKHIRQYHEEKETGQKINIHEYYLGNMLAKNLLFEKEREAEEKEKSNEIPTKNIEGQMTPYYPVGMGNGTPCSLKQNRPRSSTVMYICHPESKHEILSVAEVTTCEYEVVILTPLLCSHPKYRFRA	glycan array binding signal (z-score)	[8]	-1.39
same	glycan array binding signal (z-score)	Gal6S(b1-3)GlcNAc6S	1.43

# Source: the supplement of paper PMC8728848
